Measured values taken from the supplement of paper PMC12823440, “Inhibitors supercharge kinase turnover through native proteolytic circuits” (Nature, 2025).
Some of the results follow. The calls rarely recur for the same compound in another form.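 Kinases were expressed as nanoluciferase fusions in K562 cells and luminescence was read every 4 h between 2 and 18 h as percent of control, DMSO set to 100% and a positive control to 0%. A time point counts as decreased when the signal drops significantly (2 sigma). The hit call is the authors' own, does not follow from the count of time points alone, and its rule is not shown.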

Amino acid sequences for entries named in this document (tags omitted). A change or cut given only in a name is not applied to a line headed by its entry.
UniProt P07949, whole entry, looked up: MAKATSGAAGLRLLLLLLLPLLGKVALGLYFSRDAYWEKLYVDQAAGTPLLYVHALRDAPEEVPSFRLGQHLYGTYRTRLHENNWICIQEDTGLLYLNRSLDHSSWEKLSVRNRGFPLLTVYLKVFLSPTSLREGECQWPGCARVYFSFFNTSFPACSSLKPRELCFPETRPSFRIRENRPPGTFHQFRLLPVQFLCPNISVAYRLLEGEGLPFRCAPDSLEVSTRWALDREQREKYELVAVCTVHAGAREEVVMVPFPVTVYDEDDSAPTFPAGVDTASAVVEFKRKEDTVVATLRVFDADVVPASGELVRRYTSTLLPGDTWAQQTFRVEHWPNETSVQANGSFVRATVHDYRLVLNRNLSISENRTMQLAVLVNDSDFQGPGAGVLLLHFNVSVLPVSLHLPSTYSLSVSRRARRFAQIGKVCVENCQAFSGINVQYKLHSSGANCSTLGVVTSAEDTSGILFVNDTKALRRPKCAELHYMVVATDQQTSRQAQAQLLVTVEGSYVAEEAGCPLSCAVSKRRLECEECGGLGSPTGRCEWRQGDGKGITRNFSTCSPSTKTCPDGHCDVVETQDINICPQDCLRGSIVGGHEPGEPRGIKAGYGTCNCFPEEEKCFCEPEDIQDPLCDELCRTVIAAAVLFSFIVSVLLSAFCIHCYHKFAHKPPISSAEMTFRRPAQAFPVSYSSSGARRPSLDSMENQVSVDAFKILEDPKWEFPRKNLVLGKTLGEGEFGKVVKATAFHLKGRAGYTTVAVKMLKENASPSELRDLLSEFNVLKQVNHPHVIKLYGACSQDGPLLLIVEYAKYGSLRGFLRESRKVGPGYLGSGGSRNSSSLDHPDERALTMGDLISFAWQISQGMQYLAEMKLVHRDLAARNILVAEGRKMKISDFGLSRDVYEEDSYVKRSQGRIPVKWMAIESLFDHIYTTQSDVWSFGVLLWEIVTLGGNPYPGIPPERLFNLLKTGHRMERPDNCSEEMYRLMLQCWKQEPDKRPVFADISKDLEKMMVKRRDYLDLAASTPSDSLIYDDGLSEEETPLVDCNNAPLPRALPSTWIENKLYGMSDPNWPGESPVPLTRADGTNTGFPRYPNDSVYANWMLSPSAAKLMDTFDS
UniProt P07949, whole entry M918T, looked up: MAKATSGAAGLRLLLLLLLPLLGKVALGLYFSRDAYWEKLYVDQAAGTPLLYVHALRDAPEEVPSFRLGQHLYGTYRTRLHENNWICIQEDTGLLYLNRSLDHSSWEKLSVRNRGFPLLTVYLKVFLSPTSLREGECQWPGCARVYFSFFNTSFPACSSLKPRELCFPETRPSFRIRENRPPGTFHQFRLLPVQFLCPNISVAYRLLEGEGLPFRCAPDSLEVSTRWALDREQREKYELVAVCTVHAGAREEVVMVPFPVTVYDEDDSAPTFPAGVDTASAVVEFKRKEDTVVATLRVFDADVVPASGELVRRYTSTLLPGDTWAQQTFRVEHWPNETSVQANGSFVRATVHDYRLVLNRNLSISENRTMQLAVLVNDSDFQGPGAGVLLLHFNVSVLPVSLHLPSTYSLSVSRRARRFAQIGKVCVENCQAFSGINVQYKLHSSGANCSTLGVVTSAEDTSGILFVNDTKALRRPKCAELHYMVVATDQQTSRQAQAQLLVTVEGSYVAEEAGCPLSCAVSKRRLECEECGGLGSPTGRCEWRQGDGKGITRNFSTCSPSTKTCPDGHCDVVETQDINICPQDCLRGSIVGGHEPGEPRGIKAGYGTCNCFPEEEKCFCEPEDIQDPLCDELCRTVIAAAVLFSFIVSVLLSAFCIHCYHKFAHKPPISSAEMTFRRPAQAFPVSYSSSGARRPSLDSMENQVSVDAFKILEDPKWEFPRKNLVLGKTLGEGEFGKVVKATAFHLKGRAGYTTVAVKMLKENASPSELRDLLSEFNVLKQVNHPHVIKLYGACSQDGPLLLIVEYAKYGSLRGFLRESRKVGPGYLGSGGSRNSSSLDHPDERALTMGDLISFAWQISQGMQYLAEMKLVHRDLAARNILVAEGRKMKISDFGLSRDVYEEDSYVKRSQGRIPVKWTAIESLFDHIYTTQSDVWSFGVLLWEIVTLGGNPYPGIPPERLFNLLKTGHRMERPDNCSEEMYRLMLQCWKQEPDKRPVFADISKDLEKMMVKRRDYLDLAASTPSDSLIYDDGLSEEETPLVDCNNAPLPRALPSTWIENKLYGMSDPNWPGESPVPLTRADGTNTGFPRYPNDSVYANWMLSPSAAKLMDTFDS
UniProt Q9BRS2: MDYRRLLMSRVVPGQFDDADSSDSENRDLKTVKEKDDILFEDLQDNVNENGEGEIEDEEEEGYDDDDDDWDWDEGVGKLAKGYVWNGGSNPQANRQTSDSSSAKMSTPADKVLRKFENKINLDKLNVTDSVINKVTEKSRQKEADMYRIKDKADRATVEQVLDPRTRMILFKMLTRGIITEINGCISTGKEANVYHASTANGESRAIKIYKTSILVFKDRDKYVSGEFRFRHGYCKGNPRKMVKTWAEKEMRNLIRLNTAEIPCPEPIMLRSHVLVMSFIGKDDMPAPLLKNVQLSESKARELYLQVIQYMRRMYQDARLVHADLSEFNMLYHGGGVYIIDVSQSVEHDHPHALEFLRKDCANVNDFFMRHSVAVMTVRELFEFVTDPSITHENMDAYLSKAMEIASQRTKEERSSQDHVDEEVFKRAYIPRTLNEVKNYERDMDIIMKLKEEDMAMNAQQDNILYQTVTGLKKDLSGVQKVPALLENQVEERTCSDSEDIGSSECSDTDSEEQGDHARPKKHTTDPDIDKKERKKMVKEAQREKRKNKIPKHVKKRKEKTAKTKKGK
UniProt Q13546: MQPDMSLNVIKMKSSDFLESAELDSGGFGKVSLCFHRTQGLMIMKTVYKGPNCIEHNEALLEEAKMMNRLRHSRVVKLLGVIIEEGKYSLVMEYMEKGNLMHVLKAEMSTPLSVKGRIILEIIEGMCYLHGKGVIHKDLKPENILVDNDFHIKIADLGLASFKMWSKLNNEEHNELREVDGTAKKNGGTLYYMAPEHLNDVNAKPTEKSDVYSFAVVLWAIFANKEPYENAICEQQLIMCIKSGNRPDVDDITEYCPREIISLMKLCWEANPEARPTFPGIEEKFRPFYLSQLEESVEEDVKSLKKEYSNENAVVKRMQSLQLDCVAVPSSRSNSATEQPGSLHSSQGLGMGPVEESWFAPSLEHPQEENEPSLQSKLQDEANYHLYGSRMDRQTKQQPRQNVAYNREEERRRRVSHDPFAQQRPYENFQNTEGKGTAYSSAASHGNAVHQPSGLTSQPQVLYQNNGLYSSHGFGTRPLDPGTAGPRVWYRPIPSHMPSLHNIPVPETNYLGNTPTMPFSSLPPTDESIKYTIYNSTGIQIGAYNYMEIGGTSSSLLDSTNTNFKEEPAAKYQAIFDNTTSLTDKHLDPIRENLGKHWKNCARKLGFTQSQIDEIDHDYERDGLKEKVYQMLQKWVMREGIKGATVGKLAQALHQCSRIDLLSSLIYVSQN
UniProt Q01974, whole entry: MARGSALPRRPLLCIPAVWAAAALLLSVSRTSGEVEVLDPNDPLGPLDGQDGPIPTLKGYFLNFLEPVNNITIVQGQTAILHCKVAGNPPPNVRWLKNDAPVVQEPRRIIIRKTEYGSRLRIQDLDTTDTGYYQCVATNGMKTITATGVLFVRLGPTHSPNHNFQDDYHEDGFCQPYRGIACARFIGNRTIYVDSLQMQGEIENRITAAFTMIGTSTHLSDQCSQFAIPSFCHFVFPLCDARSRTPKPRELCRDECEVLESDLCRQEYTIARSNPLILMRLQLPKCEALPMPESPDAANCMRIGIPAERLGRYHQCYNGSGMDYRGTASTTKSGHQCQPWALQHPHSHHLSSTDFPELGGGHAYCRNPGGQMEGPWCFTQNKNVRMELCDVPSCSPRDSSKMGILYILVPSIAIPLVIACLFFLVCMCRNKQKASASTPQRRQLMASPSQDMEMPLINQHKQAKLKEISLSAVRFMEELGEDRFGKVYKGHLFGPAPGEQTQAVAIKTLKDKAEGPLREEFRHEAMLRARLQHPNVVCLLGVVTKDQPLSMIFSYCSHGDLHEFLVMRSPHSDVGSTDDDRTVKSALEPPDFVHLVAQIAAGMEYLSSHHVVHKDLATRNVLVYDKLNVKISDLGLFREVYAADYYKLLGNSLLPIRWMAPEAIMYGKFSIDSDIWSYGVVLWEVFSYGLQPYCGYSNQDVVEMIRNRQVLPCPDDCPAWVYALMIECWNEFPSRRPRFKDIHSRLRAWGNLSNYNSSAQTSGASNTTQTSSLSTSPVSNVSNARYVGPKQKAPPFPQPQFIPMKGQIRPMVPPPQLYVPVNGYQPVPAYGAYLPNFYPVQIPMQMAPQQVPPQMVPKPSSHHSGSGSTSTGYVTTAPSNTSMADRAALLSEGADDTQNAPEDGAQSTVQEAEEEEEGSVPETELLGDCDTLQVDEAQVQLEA
UniProt Q15418, whole entry: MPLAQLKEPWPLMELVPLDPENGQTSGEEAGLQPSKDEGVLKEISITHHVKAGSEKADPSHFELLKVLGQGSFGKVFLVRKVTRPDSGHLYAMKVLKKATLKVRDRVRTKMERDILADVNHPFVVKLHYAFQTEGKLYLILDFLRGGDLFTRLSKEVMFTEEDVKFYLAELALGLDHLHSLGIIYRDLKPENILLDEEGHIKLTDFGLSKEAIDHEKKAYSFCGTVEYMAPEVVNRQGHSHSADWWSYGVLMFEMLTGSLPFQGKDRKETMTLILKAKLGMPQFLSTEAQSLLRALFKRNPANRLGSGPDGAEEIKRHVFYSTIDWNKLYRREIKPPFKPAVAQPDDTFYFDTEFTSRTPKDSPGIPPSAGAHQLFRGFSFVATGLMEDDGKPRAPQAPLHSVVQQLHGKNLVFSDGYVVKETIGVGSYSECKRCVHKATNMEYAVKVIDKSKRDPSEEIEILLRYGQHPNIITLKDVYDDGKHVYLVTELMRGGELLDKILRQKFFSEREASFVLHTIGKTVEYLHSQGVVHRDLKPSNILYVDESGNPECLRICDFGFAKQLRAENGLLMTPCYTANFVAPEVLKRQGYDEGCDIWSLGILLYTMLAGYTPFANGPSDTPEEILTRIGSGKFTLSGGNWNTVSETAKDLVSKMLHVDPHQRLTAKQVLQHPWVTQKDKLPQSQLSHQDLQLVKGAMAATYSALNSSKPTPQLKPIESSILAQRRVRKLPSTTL
UniProt Q9NYA1, whole entry: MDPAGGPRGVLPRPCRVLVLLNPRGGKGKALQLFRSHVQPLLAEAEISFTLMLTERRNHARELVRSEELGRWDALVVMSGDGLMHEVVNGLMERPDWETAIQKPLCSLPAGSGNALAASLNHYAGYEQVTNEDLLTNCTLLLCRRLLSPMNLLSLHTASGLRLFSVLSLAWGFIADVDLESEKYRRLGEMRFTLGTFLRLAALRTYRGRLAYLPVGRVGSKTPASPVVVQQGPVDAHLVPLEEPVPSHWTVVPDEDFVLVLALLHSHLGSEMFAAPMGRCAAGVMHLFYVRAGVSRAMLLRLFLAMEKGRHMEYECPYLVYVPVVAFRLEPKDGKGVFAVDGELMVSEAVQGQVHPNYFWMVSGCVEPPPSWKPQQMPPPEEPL
UniProt Q9Y6E0: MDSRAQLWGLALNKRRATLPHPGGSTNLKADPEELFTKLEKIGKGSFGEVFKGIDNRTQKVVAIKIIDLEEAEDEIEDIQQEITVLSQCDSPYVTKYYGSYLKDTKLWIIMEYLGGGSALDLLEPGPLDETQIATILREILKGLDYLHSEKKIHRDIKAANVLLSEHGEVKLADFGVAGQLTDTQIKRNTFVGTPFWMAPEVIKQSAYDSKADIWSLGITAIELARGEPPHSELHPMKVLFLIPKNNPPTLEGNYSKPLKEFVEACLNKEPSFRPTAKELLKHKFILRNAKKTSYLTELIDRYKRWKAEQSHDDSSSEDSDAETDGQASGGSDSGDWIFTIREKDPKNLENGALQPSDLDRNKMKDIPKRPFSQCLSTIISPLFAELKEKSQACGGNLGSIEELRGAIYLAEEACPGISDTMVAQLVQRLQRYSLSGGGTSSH

How the values were obtained:
Test in all cases: kinase-Nluc reporter destabilization hit call (1 = scored as downregulated) (binary); higher = compound decreases kinase abundance
Details in all cases: K562; 2-18 h
RET = RET (UniProt P07949)
[1] = target: RET_M918T (clone: RET_mut) (UniProt P07949)
RIOK1 = RIOK1 (UniProt Q9BRS2)
RIPK1 = RIPK1 (UniProt Q13546)
RIPK2 = RIPK2 (UniProt O43353)
ROR2 = ROR2 (UniProt Q01974)
RPS6KA1 = RPS6KA1 (UniProt Q15418)
SPHK1 = SPHK1 (UniProt Q9NYA1)
SRC = SRC (UniProt P12931)
STK24 = STK24 (UniProt Q9Y6E0)

Measured: kinase-Nluc reporter destabilization hit call

Nc1ncc(-c2ccc(C(=O)N3CCNCC3)cc2)nc1-c1ccc(C(F)(F)F)cc1 (10 µM)
inactive: RET 0 | [1] 0 | RIOK1 = 0 | RIPK1 = 0 | RIPK2 = 0 | ROR2 = 0 | RPS6KA1 = 0 | SPHK1 = 0 | SRC 0 | STK24 = 0

Cn1ncc(Cl)c1-c1cc(C(=O)N[C@H](CN)Cc2ccc(F)c(F)c2)sc1Cl (10 µM)
inactive: RET 0 | [1] 0 | RIOK1 = 0 | RIPK1 = 0 | RIPK2 = 0 | ROR2 = 0 | RPS6KA1 = 0 | SPHK1 = 0 | SRC 0 | STK24 = 0

CC(=O)Nc1nc2ccc(-c3cnc(C)c(NC(=O)OC4CCCCC4)c3)cc2s1 (10 µM)
inactive: RET 0 | [1] 0 | RIOK1 = 0 | RIPK1 = 0 | RIPK2 = 0 | ROR2 = 0 | RPS6KA1 = 0 | SPHK1 = 0 | SRC 0 | STK24 = 0

CC(C)(C)c1cc(C(c2cc3c(cc2O)OCO3)N2CCOCC2)cc(C(C)(C)C)c1O (stereo not given) (2.5 µM)
inactive: RET 0 | [1] 0 | RIOK1 = 0 | RIPK1 = 0 | RIPK2 = 0 | ROR2 = 0 | RPS6KA1 = 0 | SPHK1 = 0 | SRC 0 | STK24 = 0

CC(C)n1cnc2c(Nc3cccc(Cl)c3)nc(NCCO)nc21 (10 µM)
inactive: RET 0 | [1] 0 | RIOK1 = 0 | RIPK1 = 0 | RIPK2 = 0 | ROR2 = 0 | RPS6KA1 = 0 | SPHK1 = 0 | SRC 0 | STK24 = 0

CN(C)C(=O)c1ccc(S(=O)(=O)c2ccc(NC(=O)[C@@](C)(O)C(F)(F)F)c(Cl)c2)cc1 (10 µM)
inactive: RET 0 | [1] 0 | RIOK1 = 0 | RIPK1 = 0 | RIPK2 = 0 | ROR2 = 0 | RPS6KA1 = 0 | SPHK1 = 0 | SRC 0 | STK24 = 0

C[C@@H]1C[C@H]2O[C@@]3(O[C@@H]2C(C)(C)O)[C@H](O)[C@@]2(C)[C@@H]4CC[C@H]5C(C)(C)[C@@H](O[C@@H]6OC[C@H](O)[C@H](O)[C@H]6O)CC[C@@]56C[C@@]46CC[C@]2(C)[C@@H]13 [Cimiracemoside C] (10 µM)
inactive: RET 0 | [1] 0 | RIOK1 = 0 | RIPK1 = 0 | RIPK2 = 0 | ROR2 = 0 | RPS6KA1 = 0 | SPHK1 = 0 | SRC 0 | STK24 = 0

Cc1cccc(-c2[nH]ncc2-c2ccc3ncccc3n2)n1 (10 µM)
inactive: RET 0 | [1] 0 | RIOK1 = 0 | RIPK1 = 0 | RIPK2 = 0 | ROR2 = 0 | RPS6KA1 = 0 | SPHK1 = 0 | SRC 0 | STK24 = 0
